Test results: patent US20020026034A1 (priority 1995, published 2002)

Tests used:
Conditions in all cases: whole synthesis, scale 0.03 mmol, HCl
[1] = general procedure: Fmoc solid-phase peptide synthesis; Fmoc-L-Tyr-TCP; TBTU/NMM
[2] = general procedure: Fmoc solid-phase peptide synthesis; Fmoc-L-Ser(t-Bu)-TCP; TBTU/NMM
[3] = general procedure: Fmoc solid-phase peptide synthesis; Fmoc-L-Trp-TCP; TBTU/NMM

With Ada-Gly-Asp-Tyr as the substance, how does the crude mass [1] read?
Its crude mass is 12 mg.

With Troc-Ada-Gly-Asp-Ser as the substance, how does the crude mass [2] read?
Its crude mass is 15 mg.

Which crude mass [3] does the source give for Troc-Ada-Gly-Asp-Trp here?
Its crude mass is 16 mg.
